Reference: PubChem BioAssay (NCATS)
Inconclusive means that the source gave no clear call. Such entries were picked first, then a sample of the others. For some of these results: A potency beside an inconclusive call is a rough fit, not a confirmed value. Activity calls are given as the source filed them. Unless noted, calls follow the shape of the dose curve; as a rule, active = well fitted curve in the direction sought with a large enough effect; inconclusive = small, poorly fitted or top-dose-only effect, or another doubt; inactive = no such curve, though single readings can be large; an effect the other way counts as inactive or inconclusive.

The chains behind the UniProt entries cited, without tags or fusion partners. Where a name states a change or a piece, a line headed by the entry shows the natural chain unless it says otherwise.
UniProt P19793: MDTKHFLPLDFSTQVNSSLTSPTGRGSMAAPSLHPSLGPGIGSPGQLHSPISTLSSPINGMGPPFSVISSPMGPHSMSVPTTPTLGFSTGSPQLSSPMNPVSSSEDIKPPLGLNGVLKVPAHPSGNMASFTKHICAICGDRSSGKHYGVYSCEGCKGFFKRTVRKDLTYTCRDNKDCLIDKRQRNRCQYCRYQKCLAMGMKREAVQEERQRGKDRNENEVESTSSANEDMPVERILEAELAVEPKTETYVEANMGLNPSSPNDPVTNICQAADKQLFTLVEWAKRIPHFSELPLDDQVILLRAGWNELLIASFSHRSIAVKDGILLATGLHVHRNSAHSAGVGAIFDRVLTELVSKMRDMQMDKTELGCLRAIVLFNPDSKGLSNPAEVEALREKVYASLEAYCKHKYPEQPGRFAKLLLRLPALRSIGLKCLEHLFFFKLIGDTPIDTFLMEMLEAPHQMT

Columns and labels:
[1] = Quantitative High-Throughput drug screen in 47 multiple myeloma cell lines against the NCATS MIPE library collection: FR4_PLB cell viability assay (AID 1918924; also: potency is read from the fitted curve at half-maximal effect; nearly all actives have a fitted effect of over 35% in size)
Summary of the method: (§1)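 Relative luminescence from CellTiter-Glo served as the viability signal, referenced to DMSO-treated (100%) and cell-free medium (0%) controls. Treatment lasted 48 hours at 37C with 500 cells per well.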

[2] = Quantitative High-Throughput drug screen in 47 multiple myeloma cell lines against the NCATS MIPE library collection: AMO1_DSMZ cell viability assay (AID 1918927; also: potency is read from the fitted curve at half-maximal effect; nearly all actives have a fitted effect of over 30% in size); conditions: AMO1 myeloma cells viability, CellTiter-Glo ATP luminescence, 48 h; viability, % of DMSO: at 45.8 µM (top of the series)
Summary of the method: (§2)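 Inhibition of cell viability is measured here. Each line was plated at 500 cells per well, treated with MIPE 4.0 drugs, kept 48 hours at 37C, then assayed for ATP content by CellTiter-Glo luminescence.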

[3] = Quantitative High-Throughput drug screen in 47 multiple myeloma cell lines against the NCATS MIPE library collection: ARP1_JJKsccF8 cell viability assay (AID 1918928; also: nearly all actives have a fitted effect of over 40% in size; also: potency is read from the fitted curve at half-maximal effect)
Summary of the method: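 500 cells/well; MIPE 4.0 library pinned in; 48 h, 37 °C, 5% CO2; CellTiter-Glo ATP luminescence. Controls: DMSO = 100% viability, medium only = 0%.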

[4] = Quantitative High-Throughput drug screen in 47 multiple myeloma cell lines against the NCATS MIPE library collection: Karpas620_DSMZ cell viability assay (AID 1918959); also: nearly all actives have a fitted effect of over 30% in size; also: potency is read from the fitted curve at half-maximal effect;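 as to viability (% of DMSO): 100% = DMSO-only wells and 0% = cell-free media-only wells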
Summary of the method: as §1

[5] = Quantitative High-Throughput drug screen in 47 multiple myeloma cell lines against the NCATS MIPE library collection: JIM3_ECACC cell viability assay (AID 1918963; also: nearly all actives have a fitted effect of over 35% in size; also: potency is read from the fitted curve at half-maximal effect)
Summary of the method: as §1

[6] = Quantitative High-Throughput drug screen in 47 multiple myeloma cell lines against the NCATS MIPE library collection: Karpas25_ECACC cell viability assay (AID 1918968; also: nearly all actives have a fitted effect of over 35% in size; also: potency is read from the fitted curve at half-maximal effect)
Summary of the method: as §2

[7] = Quantitative High-Throughput drug screen in 47 multiple myeloma cell lines against the NCATS MIPE library collection: KMS12PE_JCRB cell viability assay (AID 1918972);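 also: 100% = DMSO only wells and 0% = wells with media alone; nearly all actives have a fitted effect of over 30% in size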
Summary of the method: as §1

[8] = Quantitative High-Throughput drug screen in 47 multiple myeloma cell lines against the NCATS MIPE library collection: KMS21BM_JCRB cell viability assay (AID 1918974); also: potency is read from the fitted curve at half-maximal effect
Summary of the method: as §2

[9] = Quantitative High-Throughput drug screen in 47 multiple myeloma cell lines against the NCATS MIPE library collection: KMS26_JCRB cell viability assay (AID 1918975); conditions: KMS26 myeloma cells viability, CellTiter-Glo ATP, 48 h; viability (% of DMSO): at 45.8 µM (top of the series);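 also: 100% = DMSO-treated wells and 0% = wells with media only; nearly all actives have a fitted effect of over 45% in size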
Summary of the method: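 qHTS of the MIPE 4.0 collection: 500 myeloma cells/well, 48 h drug exposure at 37C in 5% CO2, then CellTiter-Glo for 5 min at room temperature before luminescence reading.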

[10] = Quantitative High-Throughput drug screen in 47 multiple myeloma cell lines against the NCATS MIPE library collection: OCIMY1_PLB cell viability assay (AID 1918979); also: potency is read from the fitted curve at half-maximal effect; nearly all actives have a fitted effect of over 35% in size
Summary of the method: (§3)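 Readout: median RLU from CellTiter-Glo after 5 min at room temperature. Preceding step was 48 h drug treatment of 500 cells/well at 37 °C, 5% CO2, with DMSO-only and media-only control wells.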

[11] = Quantitative High-Throughput drug screen in 47 multiple myeloma cell lines against the NCATS MIPE library collection: MM1R_ATCC cell viability assay (AID 1918981); also: nearly all actives have a fitted effect of over 35% in size; also: potency is read from the fitted curve at half-maximal effect
Summary of the method: as §3

[12] = Quantitative High-Throughput drug screen in 47 multiple myeloma cell lines against the NCATS MIPE library collection: LP1_DSMZ cell viability assay (AID 1918982); also: nearly all actives have a fitted effect of over 35% in size; also: potency is read from the fitted curve at half-maximal effect
Summary of the method: as §3

[13] = Quantitative High-Throughput drug screen in 47 multiple myeloma cell lines against the NCATS MIPE library collection: OPM1_PLB cell viability assay (AID 1918989); also: nearly all actives have a fitted effect of over 40% in size
Summary of the method: as §3

[14] = Quantitative High-Throughput drug screen in 47 multiple myeloma cell lines against the NCATS MIPE library collection: XG1_PLB cell viability assay (AID 1919866); also: nearly all actives have a fitted effect of over 35% in size; also: potency is read from the fitted curve at half-maximal effect
Summary of the method: as §3

[15] = Quantitative High-Throughput drug screen in 47 multiple myeloma cell lines against the NCATS MIPE library collection: PE2_PLB cell viability assay (AID 1919869)
Summary of the method: as §3

[16] = Quantitative High-Throughput drug screen in 47 multiple myeloma cell lines against the NCATS MIPE library collection: KMS28BM_JCRB cell viability assay (AID 1919874); also: nearly all actives have a fitted effect of over 35% in size
Summary of the method: as §3

[17] = Cell Viability - LYMP2-018 (AID 985);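 also: compound exposure lasted 24 hr at 37 °C; plate controls were DMSO only for no effect and tetraoctylammonium bromide at 92 µM for full effect; nearly all actives have a fitted effect of over 50% in size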
Summary of the method: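 2500 cells/well; 5 hr 37 C; cmpd 24 hr 37 C, complete medium; CellTiter-Glo 30 min RT; luminescence. Tetraoctylammonium bromide positive control. AC50 via Hill fit.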

[18] = molecular target: Vitamin D3 receptor (Homo sapiens) (UniProt P11473); assay: qHTS assay for small molecule antagonists of vitamin D receptor signaling (AID 588541; calls by dose curve;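 also: receptor activated by calcitriol during compound treatment; % is scaled to controls: 0 for no effect and ±100 for the full control effect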); conditions: HEK293T VDR-UAS-bla, beta-lactamase ratio, antagonist mode; activity change, negative = inhibition: at 76.7 µM (top of the series) unless noted
[19] = molecular target: Retinoic acid receptor RXR-alpha (Homo sapiens) (UniProt P19793); assay: qHTS assay for small molecule antagonists of retinoid X receptor alpha signaling (AID 588546; active = well fitted inhibition curve with a large enough effect in the signal ratio, with a control signal flat, not every such curve was filed as active; inconclusive = small, poorly fitted or top-dose-only effect, or effect the other way, or a change in a side signal; inactive = no such curve, though single readings can be large or run the other way; the % refers to the signal ratio;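 also: cells stimulated with 9-cis-retinoic acid as agonist; % is scaled to controls: 0 for no effect and ±100 for the full control effect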); conditions: HEK293T RXRa-UAS-bla, beta-lactamase ratio, antagonist mode
Summary of the method: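 Beta-lactamase reporter inhibition, read as CCF4 fluorescence ratio (ex 405, em 460/530 nm) after 2 h at RT. HEK293T UAS-bla cells, 2500/well, were stimulated with 9-cis-RA at 500 or 100 nM final alongside test compound for 18 h at 37 C.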

[20] = Primary qHTS for inhibitors of La Crosse Virus (LACV) - induced cell death in SH-SY5Y cells (AID 1508616); also: potency is read from the fitted curve at half-maximal effect;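 as to activity change: top concentration of the series differs between compounds; 0% = infected DMSO wells and 100% = uninfected DMSO wells; higher means more rescue of cells from virus-induced death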
Summary of the method: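 Cytopathicity rescue screen: compounds pinned onto SH-SY5Y cells, which are then infected with LACV (MOI 0.01) and held 6 days at 37C. Percent activity is scaled between infected DMSO control and uninfected DMSO control.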

COc1c(N2C[C@@H]3CCCN[C@H]3C2)c(F)cc2c(=O)c(C(=O)O)cn(C3CC3)c12
active: Potency [3] 37.2 µM
inactive: Potency [4] | Potency [7] | Potency [11] | Potency [13] | Potency [14] | Potency [15] | Potency [16]
inconclusive: Potency [1] 37.2 µM [cytotoxic, single point] | Potency [2] 37.2 µM [cytotoxic, single point] | Potency [5] 0.418 µM [rising, full curve, poor fit] | Potency [6] 0.469 µM [rising, full curve, poor fit] | Potency [8] 37.2 µM [cytotoxic, single point] | viability (% of DMSO) [9] 129% [cytotoxic] | Potency [10] 37.2 µM [cytotoxic, single point] | Potency [12] 10.5 µM [cytotoxic, partial curve, poor fit]

CN=C(NC#N)NCCSCc1nc[nH]c1C
inactive: Potency [17] | Potency [18] | max response [19] 4.57% | Potency [20]

O=C(O)[C@H](O)c1ccccc1
inconclusive: Potency [20] 0.631 µM [inhibitor, partial curve, poor fit]

O=C(O)CO.[NH2-].[NH2-].[Pt+2]
inconclusive: Potency [8] 0.0935 µM [rising, full curve, poor fit] | Potency [11] 10.5 µM [rising, partial curve, poor fit]
inactive: Potency [3] | Potency [6] | Potency [9] | Potency [12] | Potency [16]

CN1c2cc(O)c(N=NC(N)=O)cc2CC1S(=O)(=O)O (stereo not given)
inconclusive: Potency [1] 0.001 µM | Potency [2] 0.0235 µM [rising, full curve, poor fit] | Potency [4] 37.2 µM [cytotoxic, single point] | Potency [10] 0.001 µM | Potency [14] 29.6 µM [cytotoxic, single point]
inactive: Potency [5] | Potency [7] | Potency [13] | Potency [15]

COC(C)=O
inactive: Potency [17]

CCOC(C)=O
inconclusive: max response [19] -0.0207%

C=C(C)C1CC=C(C)CC1 (stereo not given)
inconclusive: activity change, negative = inhibition [18] -4.44% [at 2.03 mM]
